Assay results: patent publication US20240294544A1, “NEW SUBSTITUTED PYRIDINES AS FUNGICIDES” (BASF SE, priority 2021, published 2024)
Some entries share one result that the patent states for a list of compounds.

What was measured:
Type in all cases: cell-based
[1] = system: Colletotrichum orbiculare; experiment: Example 7: activity against Colletotrichum orbiculare in the microtiterplate test; settings: 31 ppm active substance; DOB media (ph 7); relative to compound-free control (100%)
[2] = system: Corynespora cassiicola (CORYCA-G) G413A mutant; experiment: Example 15: activity against Corynespora cassiicola (CORYCA-G) G413A mutant in the microtiterplate test; settings: 31 ppm active substance; DOB media (ph 7); relative to compound-free control (100%)
Leptosphaeria maculans = experiment: Example 13: activity against Leptosphaeria maculans in the microtiterplate test; settings: 31 ppm active substance; DOB media (ph 7); relative to compound-free control (100%)
Fusarium culmorum = experiment: Example 4: activity against Fusarium culmorum in the microtiterplate test; settings: 31 ppm active substance; relative to compound-free control (100%)
[3] = system: Pyrenophora teres Qoi (FL129) resistant isolate; experiment: Example 12: activity against Pyrenophora teres Qoi (FL129) resistant isolate in the microtiterplate test; settings: 31 ppm active substance; DOB media (ph 7); relative to compound-free control (100%)
Corynespora cassiicola = experiment: Example 14: activity against Corynespora cassiicola in the microtiterplate test; settings: 31 ppm active substance; DOB media (ph 7); relative to compound-free control (100%)
Botrytis cinerea = experiment: Example 3: activity against the grey mold Botrytis cinerea in the microtiterplate test; settings: 31 ppm active substance; relative to compound-free control (100%)
Leptosphaeria nodorum = experiment: Example 8: activity against Leptosphaeria nodorum in the microtiterplate test; settings: 31 ppm active substance; DOB media (ph 7); relative to compound-free control (100%)
Microdochium nivale = experiment: Example 6: activity against Microdochium nivale in the microtiterplate test; settings: 31 ppm active substance; DOB media (ph 7); relative to compound-free control (100%)
Monilinia laxa = experiment: Example 10: activity against Monilinia laxa in the microtiterplate test; settings: 31 ppm active substance; DOB media (ph 7); relative to compound-free control (100%)

Row | Structure (SMILES) | growth of the pathogen [1] [%] | growth of the pathogen [2] [%] | growth of the pathogen (Leptosphaeria maculans) [%] | growth of the pathogen (Fusarium culmorum) [%] | growth of the pathogen [3] [%] | growth of the pathogen (Corynespora cassiicola) [%] | growth of the pathogen (Botrytis cinerea) [%] | growth of the pathogen (Leptosphaeria nodorum) [%] | growth of the pathogen (Microdochium nivale) [%] | growth of the pathogen (Monilinia laxa) [%]
1 | Cc1cc(C2=NC(C)(C(C)(C)C)Oc3c2cccc3C(C)(C)C)cnc1C (stereo not shown) [Ex-16] | ≤ 17 | ≤ 19 | ≤ 10 |  |  |  |  |  |  | 
2 | Cc1cc(C2=NC3(CCCC3(C)C)Oc3ccccc32)cnc1C (stereo not shown) [Ex-19] | ≤ 17 | ≤ 19 | ≤ 10 | ≤ 19 | ≤ 16 | ≤ 19 | ≤ 11 | ≤ 19 | ≤ 18 | 
3 | CCC1(CC)N=C(c2cnc(C(F)F)c(C)c2)c2ccccc2O1 [Ex-24] |  | ≤ 19 | ≤ 10 |  | ≤ 16 | ≤ 19 | ≤ 11 | ≤ 19 | ≤ 18 | ≤ 16
4 | Cc1cc(C2=NC3(CCC3)Oc3ccccc32)cnc1C(F)F [Ex-25, 4-[6-(difluoromethyl)-5-methyl-3-pyridyl]spiro[1,3-benzoxazine-2,1′-cyclobutane]] |  |  |  |  | ≤ 16 |  |  |  |  | 
5 | Cc1cc(C2=NC(C)(C)Oc3c(F)cccc32)cnc1C [Ex-28] |  |  |  | ≤ 19 |  |  | ≤ 11 |  |  | 
6 | COC1(C)N=C(c2cnc(C)c(C)c2)c2ccccc2O1 (stereo not shown) [Ex-39] | ≤ 17 | ≤ 19 | ≤ 10 | ≤ 19 |  | ≤ 19 | ≤ 11 | ≤ 19 | ≤ 18 | ≤ 16
7 | Cc1cc(C2=NC(C)(C3CCC3)Oc3ccccc32)cnc1C (stereo not shown) [Ex-41] | ≤ 17 | ≤ 19 | ≤ 10 |  | ≤ 16 | ≤ 19 | ≤ 11 | ≤ 19 | ≤ 18 | ≤ 16
8 | Cc1cc(C2=NC(C)(c3ccc(Cl)cc3)Oc3ccccc32)cnc1C(F)F (stereo not shown) [Ex-51] |  |  |  | ≤ 19 | ≤ 16 |  |  |  |  | 
9 | Cc1cc(C2=NC3(CCC3)Oc3c(Br)cccc32)cnc1C(F)F [Ex-53] | ≤ 17 | ≤ 19 | ≤ 10 |  | ≤ 16 | ≤ 19 | ≤ 11 | ≤ 19 | ≤ 18 | ≤ 16
10 | Cc1cc(C2=NC(C)(Cc3ccc(F)cc3)Oc3ccccc32)cnc1C(F)F (stereo not shown) [Ex-58] |  |  |  |  | ≤ 16 |  |  |  |  | 
11 | Cc1cc(C2=NC(C)(Cc3ccc(Cl)cc3)Oc3ccccc32)cnc1C(F)F (stereo not shown) [Ex-59] |  | ≤ 19 | ≤ 10 |  | ≤ 16 | ≤ 19 | ≤ 11 | ≤ 19 | ≤ 18 | ≤ 16
12 | Cc1cc(C2=NC(C)(c3ccc(F)cc3)Oc3c(F)cccc32)cnc1C(F)F (stereo not shown) [Ex-69] | ≤ 17 | ≤ 19 | ≤ 10 |  | ≤ 16 | ≤ 19 | ≤ 11 | ≤ 19 | ≤ 18 | ≤ 16
13 | Cc1cc(C2=NC(C)(C)Oc3c2ccc(C)c3C)cnc1C(F)F [Ex-73] |  |  |  | ≤ 19 |  |  |  |  |  | 
14 | Cc1cc(C2=NC3(CCC3C)Oc3cc(C(F)(F)F)ccc32)cnc1C(F)F (stereo not shown) [Ex-76] |  |  |  | ≤ 19 |  |  |  |  |  | 
15 | Cc1cc(C2=NC(C)(C)Oc3c(C)cccc32)cnc1C(F)F [Ex-77] |  |  |  | ≤ 19 |  |  |  |  |  | 
